Laboratory results published in publication PMC8630017, “Structural insights into proteolytic activation of the human Dispatched1 transporter for Hedgehog morphogen release” (Nature Communications, 2021).

Protein sequences, listed by entry. Tags and fused reporters are not part of them. Lines headed by an entry give the natural chain unless they say otherwise; changes in a name come on top.
UniProt Q96F81: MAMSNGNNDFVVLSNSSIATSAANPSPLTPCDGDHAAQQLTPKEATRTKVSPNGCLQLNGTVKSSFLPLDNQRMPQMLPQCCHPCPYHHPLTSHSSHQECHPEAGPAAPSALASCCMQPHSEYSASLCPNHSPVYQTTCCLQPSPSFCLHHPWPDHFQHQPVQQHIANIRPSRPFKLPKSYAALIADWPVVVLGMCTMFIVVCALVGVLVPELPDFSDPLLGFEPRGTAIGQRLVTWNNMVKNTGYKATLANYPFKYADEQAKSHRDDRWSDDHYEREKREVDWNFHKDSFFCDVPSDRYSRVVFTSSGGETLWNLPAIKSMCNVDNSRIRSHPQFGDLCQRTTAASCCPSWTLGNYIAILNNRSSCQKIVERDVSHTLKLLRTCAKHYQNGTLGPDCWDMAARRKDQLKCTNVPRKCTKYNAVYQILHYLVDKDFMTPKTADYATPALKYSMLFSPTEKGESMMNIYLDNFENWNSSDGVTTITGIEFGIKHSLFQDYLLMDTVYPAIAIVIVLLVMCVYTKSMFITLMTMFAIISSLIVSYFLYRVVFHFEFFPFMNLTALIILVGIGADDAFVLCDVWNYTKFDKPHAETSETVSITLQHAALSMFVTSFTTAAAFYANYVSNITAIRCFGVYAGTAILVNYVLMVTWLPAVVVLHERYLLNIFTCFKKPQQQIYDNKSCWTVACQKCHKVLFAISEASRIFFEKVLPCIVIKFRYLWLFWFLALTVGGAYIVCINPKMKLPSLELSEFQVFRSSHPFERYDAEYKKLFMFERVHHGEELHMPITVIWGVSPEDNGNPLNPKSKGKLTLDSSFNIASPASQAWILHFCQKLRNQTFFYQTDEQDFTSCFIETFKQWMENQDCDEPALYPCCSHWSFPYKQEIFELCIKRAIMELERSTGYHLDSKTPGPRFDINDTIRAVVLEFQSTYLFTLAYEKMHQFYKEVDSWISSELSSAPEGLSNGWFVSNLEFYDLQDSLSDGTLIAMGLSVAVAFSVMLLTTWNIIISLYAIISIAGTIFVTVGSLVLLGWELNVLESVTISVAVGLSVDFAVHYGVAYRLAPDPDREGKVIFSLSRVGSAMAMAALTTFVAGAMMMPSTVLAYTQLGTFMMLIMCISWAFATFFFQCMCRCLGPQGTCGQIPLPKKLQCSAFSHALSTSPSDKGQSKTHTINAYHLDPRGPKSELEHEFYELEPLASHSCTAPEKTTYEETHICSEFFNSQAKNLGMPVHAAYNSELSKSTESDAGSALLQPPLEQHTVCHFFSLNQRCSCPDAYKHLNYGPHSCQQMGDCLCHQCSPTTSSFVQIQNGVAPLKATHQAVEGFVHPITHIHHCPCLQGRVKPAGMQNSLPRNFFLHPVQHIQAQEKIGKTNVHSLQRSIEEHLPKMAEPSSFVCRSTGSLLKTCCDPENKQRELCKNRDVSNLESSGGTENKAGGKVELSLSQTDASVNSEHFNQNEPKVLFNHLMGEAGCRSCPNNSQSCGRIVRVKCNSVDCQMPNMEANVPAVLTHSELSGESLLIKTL
UniProt Q15465: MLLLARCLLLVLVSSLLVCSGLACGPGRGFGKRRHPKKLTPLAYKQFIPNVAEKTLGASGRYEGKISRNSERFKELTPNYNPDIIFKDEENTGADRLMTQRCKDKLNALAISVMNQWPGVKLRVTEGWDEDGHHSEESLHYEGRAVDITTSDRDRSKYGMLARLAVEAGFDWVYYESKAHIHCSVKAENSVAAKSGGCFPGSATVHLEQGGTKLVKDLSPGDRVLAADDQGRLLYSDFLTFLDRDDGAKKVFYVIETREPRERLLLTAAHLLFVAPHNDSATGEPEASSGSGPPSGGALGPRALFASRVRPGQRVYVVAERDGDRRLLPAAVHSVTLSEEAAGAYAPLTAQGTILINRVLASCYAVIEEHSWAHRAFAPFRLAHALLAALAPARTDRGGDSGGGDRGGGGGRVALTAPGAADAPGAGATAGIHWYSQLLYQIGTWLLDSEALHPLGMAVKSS

Key:
[1] = molecular target: hDisp1^NNN (D572N, D573N, D1051N), N-terminal Flag tag and C-terminal Twin-Strep tag (human) (UniProt Q96F81); assay: pull-down; hDisp1 constructs (Flag, Twin-Strep) co-expressed with hShh in HEK293F cells; membranes solubilised with 1% LMNG; anti-Flag resin, then Strep-Tactin resin; eluate analysed by Western blotting; 25 mM Tris pH 8.0, 150 mM NaCl
[2] = molecular target: wild-type human Dispatched1 (hDisp1), N-terminal Flag tag and C-terminal Twin-Strep tag (human) (UniProt Q96F81); assay: as above

binding [1]: binds
binding [2]: binds
Substance: human Sonic hedgehog (hShh), expressed from the full-length precursor (from UniProt Q15465) (ligand)

Results are given in words; binding and its absence hold for the method and conditions named. In cells and extracts the contact can be indirect. Binding calls can cover weak binding; strength is not graded here.
